Measurements taken from PMC8542050.
No constants are given. Whether binding was seen depends on the method and setting. Binding seen in cells or lysates may run through a third protein. Some binding calls cover weakened binding; strength is not graded here. Sequences can lack the tags named with a protein.

Protein sequences, listed by entry. Tags and fused reporters are not part of them.
UniProt Q96EB6: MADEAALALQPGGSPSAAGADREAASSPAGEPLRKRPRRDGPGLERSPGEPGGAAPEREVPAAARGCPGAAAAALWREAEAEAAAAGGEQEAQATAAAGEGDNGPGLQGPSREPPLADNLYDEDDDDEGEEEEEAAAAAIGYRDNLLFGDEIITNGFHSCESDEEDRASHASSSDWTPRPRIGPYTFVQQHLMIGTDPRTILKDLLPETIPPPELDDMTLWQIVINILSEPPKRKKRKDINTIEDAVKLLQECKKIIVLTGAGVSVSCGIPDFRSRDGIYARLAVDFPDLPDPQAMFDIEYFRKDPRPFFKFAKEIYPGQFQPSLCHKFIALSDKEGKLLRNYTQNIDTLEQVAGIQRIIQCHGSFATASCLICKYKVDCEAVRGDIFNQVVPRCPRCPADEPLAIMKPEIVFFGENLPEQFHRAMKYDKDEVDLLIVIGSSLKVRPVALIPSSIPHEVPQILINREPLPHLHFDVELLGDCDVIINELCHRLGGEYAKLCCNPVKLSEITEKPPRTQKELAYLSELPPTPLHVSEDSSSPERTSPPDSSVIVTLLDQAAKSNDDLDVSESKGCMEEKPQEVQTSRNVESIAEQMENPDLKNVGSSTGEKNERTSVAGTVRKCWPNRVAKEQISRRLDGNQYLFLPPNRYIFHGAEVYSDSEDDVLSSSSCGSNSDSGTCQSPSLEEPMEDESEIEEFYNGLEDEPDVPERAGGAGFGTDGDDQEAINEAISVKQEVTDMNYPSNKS

Biological target: Myc-tagged SIRT1 (UniProt Q96EB6)
Test: co-IP; FLAG-tagged HES5 and Myc-tagged SIRT1 co-transfected into HEK293 cells; whole-cell lysates in RIPA buffer (50 mM Tris pH 7.4, 150 mM NaCl, 1% NP40, 0.5% sodium deoxycholate, 0.1% SDS); immunoprecipitation with anti-FLAG, anti-MYC or IgG overnight, Protein A/G-plus agarose beads; western blotting

binding: binds
B1: FLAG-tagged HES5 (protein, UniProt P70120 1-167)
chain: MAPSTVAVEMLSPKEKNRLRKPVVEKMRRDRINSSIEQLKLLLEQEFARHQPNSKLEKADILEMAVSYLKHSKAFAAAAGPKSLHQDYSEGYSWCLQEAVQFLTLHAASDTQMKLLYHFQRPPAPAAPAKEPPAPGAAPQPARSSAKAAAAAVSTSRQPACGLWRPW
